PubChem BioAssay AID686937 | Drosophila RNAi Screening Center | 2013

Purpose: 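Genes whose loss weakens secretory pathway function in fly cells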 (primary screen)
Cells: Drosophila S2 cells expressing secreted horseradish peroxidase
Knock-down reagent: long dsRNA against Drosophila genes
Timing: about 5.5 days (5 days dsRNA, then 12 h reporter induction)
Conditions: reporter expression induced after 5 days of dsRNA, read 12 h later; inducer not stated
Measurement: 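Chemiluminescent measurement of peroxidase in the medium 12 h after reporter induction, following 5 days of dsRNA, given as a z-score per plate; higher means more secretion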
Direction: z-score: higher = more reporter secreted into medium
The screen tested about 23,000 reagents; below is an unselected part of those that have a named target and a result. 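Reduced-secretion tags in replicate 1 do not always agree with the z-scores; no criterion for assigning the tags was given.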 Names joined by + are all predicted targets of the reagent. No sequences are given here. Not stated in the record: the amount of reagent.

target	dsRNA	z-score, replicate 1	z-score, replicate 2	z-score, replicate 3	z-score, replicate 4	phenotype, replicate 1
CG31205 (GeneID 318626)	DRSC13438	-2.66	-0.95			reduced secretion
feo (GeneID 32015)	DRSC19398	0.51	0.31			
CG31468 (GeneID 251937)	DRSC13637	0.65	0.35			
Not1 (GeneID 5740252)	DRSC06787	-1.86	-1.36			reduced secretion
Not1 (GeneID 5740252)	DRSC06794	-1.87	-1.22			reduced secretion
lz (GeneID 31883)	DRSC18790	0.11	0.4	0.27	0.25	
lz (GeneID 31883)	DRSC22302	-0.08	-0.03			
scpr-B (GeneID 41357)	DRSC15200	0.32	0.43			
loco (GeneID 42672)	DRSC15202	0.31	0.31			
loco (GeneID 42672)	DRSC16989	0.23	0.2			
amon (GeneID 43215)	DRSC13784	0.17	0.3			
amon (GeneID 43215)	DRSC16900	0.58	0.24	0.36	0.37	
EloA (GeneID 42749)	DRSC16109	-0.34	0.03			
Antdh (GeneID 32058)	DRSC20307	-0.04	0.72			
CG15423 (GeneID 33616)	DRSC00437	-0.79	-0.36			
RhoL (GeneID 41136)	DRSC16824	0.08	0.31			
CG15337 (GeneID 31748)	DRSC18020	0.28	0.62			
CG15337 (GeneID 31748)	DRSC22778	-1.8	-0.52			reduced secretion
CG17768 + LSm-4	DRSC02845	-1.08	-0.35			
lncRNA:CR42862 (GeneID 10178964)	DRSC08348	0.14	0.36			
Mlf (GeneID 36750)	DRSC07472	-2.03	-1.76			reduced secretion
Tps1 (GeneID 33642)	DRSC00269	0.19	0.27			
hig (GeneID 35949)	DRSC07628	0.42	0.61	0.43	0.38	
hig (GeneID 35949)	DRSC22827	-0.56	-0.53			
hig (GeneID 35949)	DRSC22899	0.13	0.01			
CG32073 (GeneID 326191)	DRSC09087	0.22	0.33			
CG32073 (GeneID 326191)	DRSC09894	0.53	0.46			
Naprt (GeneID 33626)	DRSC00630	0	-0.07			
CG2685 (GeneID 31259)	DRSC18463	-1.54	-1.83			reduced secretion
CG13855 (GeneID 42629)	DRSC14705	0.28	0.53			
Muc91C (GeneID 42246)	DRSC16297	0.48	0.56			
Muc91C (GeneID 42246)	DRSC21696	-2.62	0.02			reduced secretion
Pos (GeneID 43762)	DRSC15415	0.33	0.21			
CG31751 (GeneID 35118)	DRSC02464	0.38	0.53			
CG31751 (GeneID 35118)	DRSC02465	0.35	0			
stck (GeneID 40999)	DRSC17070	0.11	0.41			

As entered above:
Entry of CG13855 (GeneID 42629) [DRSC14705] under “z-score, replicate 2”: 0.53
Under “phenotype, replicate 1”, CG31205 (GeneID 318626) [DRSC13438] is entered as reduced secretion
Under “z-score, replicate 2”, Tps1 (GeneID 33642) [DRSC00269] shows 0.27
For “z-score, replicate 2”, Not1 (GeneID 5740252) [DRSC06787] reads -1.36
Antdh (GeneID 32058) [DRSC20307], z-score, replicate 1 → -0.04
Value for CG15423 (GeneID 33616) [DRSC00437] under “z-score, replicate 1”: -0.79

Next reagents:
target	dsRNA	z-score, replicate 1	z-score, replicate 2	z-score, replicate 3	z-score, replicate 4	phenotype, replicate 1
CG4630 (GeneID 36458)	DRSC06874	0.31	0.5			
chrb (GeneID 39284)	DRSC11335	0.28	0.23	0.31	0.37	
ninaD (GeneID 326160)	DRSC02886	0.14	0.3			
CG33914 (GeneID 3772464)	DRSC05033	0.1				
CG33914 (GeneID 3772464)	DRSC05034	0.27				
Acer (GeneID 34189)	DRSC01852	-0.17	0.32			
CG9812 (GeneID 37709)	DRSC04566	0.25	0.57			
mdy (GeneID 44887)	DRSC01559	0.28	-0.51			
mdy (GeneID 44887)	DRSC02250	0.24	0.25			
Pmm2 (GeneID 39436)	DRSC09780	-0.11	0.33			
asRNA:CR31845 (GeneID 12798199)	DRSC22257	0.97	0.7			
CG43902 (GeneID 31948)	DRSC17850	0.53	0.45			
CG43902 (GeneID 31948)	DRSC17999	0.16	0.15			
dnr1 (GeneID 37575)	DRSC03948	-2.18	0.33			reduced secretion
dnr1 (GeneID 37575)	DRSC04122	0.73	0.48			
CG7218 (GeneID 42165)	DRSC16216	0.03	0.18			
CG14492 (GeneID 37045)	DRSC06463	0.3	0.34			
PhKgamma (GeneID 32120)	DRSC20268	0.29	0.39			
Clk (GeneID 38872)	DRSC11117	0.15	0.23			
CG11400 (GeneID 36935)	DRSC06070	0.32	0.37			
